{"source": "PubChem BioAssay AID1159578 – Peter MacCallum Cancer Centre – 2015", "test": "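Knock-downs that alter how fast lymphatic endothelial cells migrate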 (primary screen)", "cells": "human lymphatic endothelial cells", "reagent": "siRNA pool against human genes, 40 nM", "duration": "48 h after transfection", "detection": "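High-content imaging of dye-stained cells in a scratch assay measures filled wound area and nuclei per well; duplicate means given as ratio to mock and robust z-score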", "reading the numbers": "migration robust z-score: higher = faster migration into the scratch; nuclei per well: higher = more cells in the well", "rule for the call": "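Migration changed when robust z exceeds 2 or falls below -2 and mean nuclei number is at least 3300; otherwise not called changed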", "meaning of the calls": "active = migration changed; inactive = no migration change, or too few cells", "note": "Here is a random part of about 18,000 reagents. Of all reagents, about 1,030 (5.7%) were called active. 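Inactive calls also include pools with fewer than 3300 nuclei, whose migration was not assessed.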 Raw values vary from plate to plate and are shown uncorrected. Entries without a mark were called inactive. Not all columns of the deposit are shown."}
{"target gene": "PGP (phosphoglycolate phosphatase)", "migration robust z-score": 1.53, "migration class with cell-count check": "migration z between -2 and 2; enough cells", "nuclei per well, duplicate mean": 5236}
{"target gene": "APPL1", "migration robust z-score": "-2.44 (active)", "migration class with cell-count check": "migration z below -2; enough cells", "nuclei per well, duplicate mean": 5604}
{"target gene": "CCDC47 (coiled-coil domain containing 47)", "migration robust z-score": 0.48, "migration class with cell-count check": "migration z between -2 and 2; enough cells", "nuclei per well, duplicate mean": 6545}
{"target gene": "PHF6 (PHD finger protein 6)", "migration robust z-score": 0.11, "migration class with cell-count check": "migration z between -2 and 2; enough cells", "nuclei per well, duplicate mean": 5526}
{"target gene": "F10 (coagulation factor X)", "migration robust z-score": -0.47, "migration class with cell-count check": "migration z between -2 and 2; enough cells", "nuclei per well, duplicate mean": 4650}
{"target gene": "CCDC117 (coiled-coil domain containing 117)", "migration robust z-score": -0.22, "migration class with cell-count check": "migration z between -2 and 2; enough cells", "nuclei per well, duplicate mean": 3865}
{"target gene": "LUC7L2 (LUC7 like 2, pre-mRNA splicing factor)", "migration robust z-score": 0.52, "migration class with cell-count check": "migration z between -2 and 2; enough cells", "nuclei per well, duplicate mean": 5654}
{"target gene": "DNAI1 (dynein axonemal intermediate chain 1)", "migration robust z-score": -0.83, "migration class with cell-count check": "migration z between -2 and 2; enough cells", "nuclei per well, duplicate mean": 6254}

Records listed so far marked active (1):
{"target gene": "APPL1", "migration robust z-score": "-2.44 (active)", "migration class with cell-count check": "migration z below -2; enough cells", "nuclei per well, duplicate mean": 5604}

Continued:
{"target gene": "GRM5 (glutamate metabotropic receptor 5)", "migration robust z-score": 0.54, "migration class with cell-count check": "migration z between -2 and 2; enough cells", "nuclei per well, duplicate mean": 5747}
{"target gene": "SNX4 (sorting nexin 4)", "migration robust z-score": -0.99, "migration class with cell-count check": "migration z between -2 and 2; enough cells", "nuclei per well, duplicate mean": 4895}
{"target gene": "ANKLE1 (ankyrin repeat and LEM domain containing 1)", "migration robust z-score": "2.27 (active)", "migration class with cell-count check": "migration z above 2; enough cells", "nuclei per well, duplicate mean": 6450}
{"target gene": "R3HDM4 (R3H domain containing 4)", "migration robust z-score": -1.03, "migration class with cell-count check": "migration z between -2 and 2; enough cells", "nuclei per well, duplicate mean": 6184}
{"target gene": "MRPS31 (mitochondrial ribosomal protein S31)", "migration robust z-score": "2.23 (active)", "migration class with cell-count check": "migration z above 2; enough cells", "nuclei per well, duplicate mean": 6258}
{"target gene": "TNPO3 (transportin 3)", "migration robust z-score": "-2.07 (active)", "migration class with cell-count check": "migration z below -2; enough cells", "nuclei per well, duplicate mean": 3934}
{"target gene": "WASF2 (WASP family member 2)", "migration robust z-score": -2.87, "migration class with cell-count check": "under 3300 nuclei; migration not judged", "nuclei per well, duplicate mean": 2430}
{"target gene": "CDC5L (cell division cycle 5 like)", "migration robust z-score": -0.24, "migration class with cell-count check": "migration z between -2 and 2; enough cells", "nuclei per well, duplicate mean": 4553}
{"target gene": "SLC25A47", "migration robust z-score": -0.21, "migration class with cell-count check": "migration z between -2 and 2; enough cells", "nuclei per well, duplicate mean": 5994}
{"target gene": "CDC37P1 (cell division cycle 37 pseudogene 1)", "migration robust z-score": "2.12 (active)", "migration class with cell-count check": "migration z above 2; enough cells", "nuclei per well, duplicate mean": 6834}
{"target gene": "NRAP (nebulin related anchoring protein)", "migration robust z-score": 1.62, "migration class with cell-count check": "migration z between -2 and 2; enough cells", "nuclei per well, duplicate mean": 5749}
{"target gene": "CCDC22 (CCC complex scaffolding subunit CCDC22)", "migration robust z-score": -0.77, "migration class with cell-count check": "migration z between -2 and 2; enough cells", "nuclei per well, duplicate mean": 4406}
{"target gene": "DAD1 (defender against cell death 1)", "migration robust z-score": 1.74, "migration class with cell-count check": "migration z between -2 and 2; enough cells", "nuclei per well, duplicate mean": 3446}
